{
  "sequences": {"note": "Amino acid sequences for entries named in this document (tags omitted). A change or cut given only in a name is not applied to a line headed by its entry.", "UniProt P18054": "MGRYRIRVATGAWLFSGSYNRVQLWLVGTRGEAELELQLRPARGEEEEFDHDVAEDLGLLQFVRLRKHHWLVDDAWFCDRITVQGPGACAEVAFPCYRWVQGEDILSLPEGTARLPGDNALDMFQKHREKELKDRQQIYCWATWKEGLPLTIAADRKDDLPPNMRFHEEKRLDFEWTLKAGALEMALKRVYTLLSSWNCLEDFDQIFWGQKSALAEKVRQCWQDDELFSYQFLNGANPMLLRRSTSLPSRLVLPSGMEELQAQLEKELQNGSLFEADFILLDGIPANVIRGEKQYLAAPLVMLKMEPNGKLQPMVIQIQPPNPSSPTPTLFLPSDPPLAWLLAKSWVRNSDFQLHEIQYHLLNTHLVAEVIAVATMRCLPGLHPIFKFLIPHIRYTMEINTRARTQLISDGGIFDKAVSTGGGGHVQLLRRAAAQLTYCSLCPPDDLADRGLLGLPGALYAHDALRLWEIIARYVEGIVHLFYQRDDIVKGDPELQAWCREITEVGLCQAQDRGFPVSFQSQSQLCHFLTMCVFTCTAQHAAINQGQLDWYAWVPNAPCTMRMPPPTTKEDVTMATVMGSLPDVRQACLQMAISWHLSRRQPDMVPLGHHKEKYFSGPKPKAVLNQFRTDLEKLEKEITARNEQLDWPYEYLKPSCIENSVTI"},
  "source": "PubChem BioAssay AID1671190",
  "about": "(National Center for Advancing Translational Sciences (NCATS), 2021)",
  "note": "Where “and” joins values, the source holds several entries; their conditions need not be identical. Equal values may be shown once. Screen size: about 580,000 compounds; about 6,100 (1.1%) were called active. The shares of active, inactive and inconclusive entries below differ from those in the screen. Calls come from the whole dose curve; as a rule, active = well fitted inhibition curve with a large enough effect; inconclusive = small, poorly fitted or top-dose-only effect, or another doubt; inactive = no such curve, though single readings can be large or run the other way. Potencies beside an inconclusive call are fits to weak or partial responses and may not hold up. % is set by controls: 0 for no effect and ±100 for the full control effect; potency is the fitted concentration of half-maximal effect.",
  "data": [
    {"molecular_target": "Polyunsaturated fatty acid lipoxygenase ALOX12 (Homo sapiens) (UniProt P18054)", "assay": "Primary qHTS assay for inhibitors of human arachidonate 12S-lipoxygenase (ALOX12): Round 2", "conditions": "purified 12hLO, xylenol orange hydroperoxide absorbance; activity change, negative = inhibition: at 108 µM (top of the series) unless noted", "how_it_was_run": "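Purified human 12hLO (150 nM final) in 25 mM Hepes, 0.01% Triton X-100, pH 7.0 was preincubated 15 min at room temperature with compound. Then 40 uM arachidonic acid was added, 30 min. Hydroperoxide was read by Fe-XO absorbance ratio 573/405 nm.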", "values": [
      {"smiles": "CN(Cc1ccco1)C(=O)c1c[nH]c2ccc(S(=O)(=O)Nc3ccc4c(c3)OCCO4)cc2c1=O", "activity change, negative = inhibition": "inactive: -20.4%"},
      {"smiles": "CN(CC1CCCN(CCc2ccc(Cl)cc2)C1)C(=O)C(=O)c1ccco1", "note": "(stereo not drawn)", "Potency": "inconclusive: 50.1 µM [inhibitor, partial curve, poor fit]"},
      {"smiles": "COc1ccc(Br)c2c1-c1nc(NC(=O)c3ccccc3SC)sc1C2", "Potency": "inconclusive: 44.7 µM [inhibitor, partial curve, poor fit]"},
      {"smiles": "O=c1[nH]c(/C=C/c2cccc(Br)c2)nc2ccccc12", "Potency": "inconclusive: 126 µM [inhibitor, single point]"},
      {"smiles": "O=C(Nc1ccc(Br)cc1)c1cc2ccccn2n1", "activity change, negative = inhibition": "inactive: -13.3%"},
      {"smiles": "CC(=O)NCc1ccc(C(=O)CSc2ccc(NC(C)=O)cc2)cc1", "Potency": "inconclusive: 112 µM [inhibitor, partial curve, poor fit]"},
      {"smiles": "CCOC(=O)c1c(NC(NC(=O)C(C)C)C(Cl)(Cl)Cl)sc2c1CCC2", "note": "(stereo not drawn)", "activity change, negative = inhibition": "inactive: -19%"},
      {"smiles": "CCOc1ccc(C(NC(=O)/C=C/c2ccco2)c2ccc(OC)c(OC)c2)cc1", "note": "(stereo not drawn)", "Potency": "inconclusive: 50.1 µM [inhibitor, partial curve, poor fit]"},
      {"smiles": "Cc1ccc(Cn2c(-c3ccc(F)cc3)nc(C)c(CCO)c2=O)cc1", "activity change, negative = inhibition": "inactive: 92.8%"},
      {"smiles": "O=C(NCc1ccccc1)[C@H]1CCCN1C(=O)[C@H]1CCCN1C(=O)C1CCCCC1", "Potency": "inconclusive: 5.01 µM [inhibitor, full curve, poor fit]"},
      {"smiles": "Cc1cccc(C)c1NC(=O)CN1C(=O)NC2(CCC(C)CC2)C1=O", "note": "(stereo not drawn)", "Potency": "inconclusive: 35.5 µM [inhibitor, partial curve, poor fit]"},
      {"smiles": "O=C(CS(=O)(=O)c1ccccc1)Nc1nnc(C(F)(F)F)s1", "activity change, negative = inhibition": "inactive: -23%"},
      {"smiles": "CCNC(=O)C1(C)CCN(Cc2csc(-c3ccccc3)n2)C1", "note": "(stereo not drawn)", "activity change, negative = inhibition": "inactive: 0.0837%"},
      {"smiles": "CCCCOc1ccc(/C=C/C(=O)OCC(=O)NC2CCS(=O)(=O)C2)cc1OCC", "note": "(stereo not drawn)", "activity change, negative = inhibition": "inactive: 5.07%"},
      {"smiles": "CCOC(=O)N1CCc2c(sc(NCc3ccc(OC)c(Br)c3)c2C(=O)Nc2cc(OC)ccc2OC)C1", "Potency": "inconclusive: 44.7 µM [inhibitor, partial curve]"},
      {"smiles": "C=CCN(C(=O)C1=NN(C2CCS(=O)(=O)C2)C(=O)CC1)c1nc(-c2ccc([N+](=O)[O-])cc2)cs1", "note": "(stereo not drawn)", "Potency": "inconclusive: 2.24 µM [inhibitor, full curve, poor fit]"},
      {"smiles": "c1ccc(C2CCC(NCC3CCCO3)CC2)cc1", "note": "(stereo not drawn)", "Potency": "inconclusive: 4.47 µM [inhibitor, full curve, poor fit]"},
      {"smiles": "O=C(COC(=O)COc1ccc2c(c1)CCC2)NC1CCCCC1", "Potency": "inconclusive: 44.7 µM [inhibitor, partial curve, poor fit]"},
      {"smiles": "Cc1ccccc1-c1noc(CSc2nnc(Cc3ccccc3)n2-c2ccc(F)cc2)n1", "activity change, negative = inhibition": "inactive: -9.07%"},
      {"smiles": "O[C@@H]1CC(CNCc2ccc(Cl)cc2)(COc2cccnc2)C[C@@H]1O", "note": "(stereo partly drawn)", "Potency": "inconclusive: 15.8 µM [inhibitor, full curve, poor fit]"},
      {"smiles": "CC(=O)c1ccc(N(C(=O)CNC(=O)c2ccco2)C(C(=O)NC2CCCC2)c2ccc(C)o2)cc1", "note": "(stereo not drawn)", "activity change, negative = inhibition": "inactive: -7.98%"},
      {"smiles": "COc1ccc(NC(=O)CCNC(=O)c2ccc([N+](=O)[O-])cc2)cc1S(=O)(=O)N1CCOCC1", "Potency": "inconclusive: 100 µM [inhibitor, partial curve, poor fit]"},
      {"smiles": "COc1ccc(CCNC(=O)c2cc3c(=O)n4cccc(C)c4nc3n(CC3CCCO3)c2=N)cc1", "note": "(stereo not drawn)", "Potency": "inconclusive: 79.4 µM [inhibitor, partial curve, poor fit]"},
      {"smiles": "O=C(NC(=S)Nc1ccccc1N1CCCC1)c1ccc(-c2cccc([N+](=O)[O-])c2)o1", "Potency": "inconclusive: 79.4 µM [inhibitor, partial curve, poor fit]"},
      {"smiles": "CC(NC(=O)c1cccc(F)c1)C12CC3CC(CC(C3)C1)C2", "note": "(stereo not drawn)", "Potency": "inconclusive: 28.2 µM [inhibitor, partial curve]"},
      {"smiles": "COC(=O)C1CCN(S(C)(=O)=O)CC1", "activity change, negative = inhibition": "inactive: 0%"},
      {"smiles": "CN(C)S(=O)(=O)c1ccc(NC(=S)NC(=O)Cc2ccccc2)cc1", "Potency": "inconclusive: 20 µM [inhibitor, partial curve, poor fit]"},
      {"smiles": "O=C(O)c1cc(-c2ccccc2)nc2cc(Br)ccc12", "Potency": "inconclusive: 39.8 µM [inhibitor, partial curve, poor fit]"},
      {"smiles": "O=C(CN1CCC(O)(c2cccc(C(F)(F)F)c2)CC1)NCCc1ccccc1", "Potency": "inconclusive: 112 µM [inhibitor, single point]"},
      {"smiles": "Cc1cccc(-c2cc(C(=O)Nc3nccs3)c3ccccc3n2)c1", "Potency": "inconclusive: 44.7 µM [inhibitor, partial curve, poor fit]"},
      {"smiles": "O=C1[C@H]2CC3C=CC2(O3)[C@@H]2OCCCN12", "note": "(stereo partly drawn)", "Potency": "inconclusive: 3.16 µM [inhibitor, full curve]"},
      {"smiles": "CSc1nc(O)c(C(c2ccccc2Cl)c2c(O)nc(SC)[nH]c2=O)c(=O)[nH]1", "Potency": "inconclusive: 44.7 µM [inhibitor, partial curve, poor fit]"},
      {"smiles": "CC(CN1CCN(C)CC1)OC(=O)c1ccccc1Cl", "note": "(stereo not drawn)", "Potency": "inconclusive: 35.5 µM [inhibitor, partial curve, poor fit]"},
      {"smiles": "Cn1cc(CNCCCn2ncc3ccccc32)c(-c2ccccc2F)n1", "activity change, negative = inhibition": "inactive: 16.2%"},
      {"smiles": "O=c1c(F)cn(C2CCCO2)c(=O)n1Cc1c(F)cccc1Cl", "note": "(stereo not drawn)", "Potency": "inconclusive: 28.2 µM [inhibitor, partial curve, poor fit]"},
      {"smiles": "Cc1cccc(C(=O)Nc2sccc2C#N)c1", "Potency": "inconclusive: 28.2 µM [inhibitor, partial curve]"},
      {"smiles": "Cc1ccc(CNC(=O)c2c(-c3ccccc3F)noc2C)o1", "Potency": "inconclusive: 141 µM [inhibitor, single point]"},
      {"smiles": "CCc1nnc(N2C(=N)SCC2=O)s1", "Potency": "inconclusive: 2.82 µM [inhibitor, full curve, poor fit]"},
      {"smiles": "COc1ccc(CN2CCN(C(=O)C3CCN(S(=O)(=O)c4cccs4)CC3)CC2)c(OC)c1OC", "activity change, negative = inhibition": "inactive: -27.3%"},
      {"smiles": "CC(C)Oc1ccc(OCCCN2CCCCCC2)cc1", "Potency": "active: 0.447 µM"},
      {"smiles": "CNc1ccc(C(=O)N2CCC3(CCCNC3)C2)cc1", "note": "(stereo not drawn)", "Potency": "inconclusive: 28.2 µM [inhibitor, single point]"},
      {"smiles": "CC(=O)Oc1ccc(Nc2ccccc2)cc1", "Potency": "inconclusive: 79.4 µM [inhibitor, partial curve, poor fit]"},
      {"smiles": "C=CCOC(=O)N1CCC2CC1c1c(-c3ccc(C(F)(F)F)cc3)cccc12", "note": "(stereo not drawn)", "activity change, negative = inhibition": "inactive: -9.4%"},
      {"smiles": "CC1CCN(c2ncnc3ccccc23)CC1", "Potency": "inconclusive: 0.398 µM [inhibitor, full curve, poor fit]"},
      {"smiles": "CC1=CC(=C2C(=O)c3ccccc3C2=O)C=C(C)N1Cc1ccco1", "Potency": "inconclusive: 89.1 µM [inhibitor, partial curve, poor fit]"},
      {"smiles": "Cc1n[nH]c(C)c1CCC(=O)N/N=C/C=C/c1ccccc1", "activity change, negative = inhibition": "inactive: -2.73%"},
      {"smiles": "O=c1c2ccccc2ncn1CCCCOc1ccccc1F", "Potency": "inconclusive: 2.51 µM [inhibitor, single point]"},
      {"smiles": "CC1(/[N+]([O-])=C/c2cccc(Cl)c2)CCCCC1=O", "note": "(stereo not drawn)", "Potency": "inconclusive: 89.1 µM [inhibitor, partial curve, poor fit]"},
      {"smiles": "CCSC1=C(C#N)C(c2cccs2)C(C(=O)OC)=C(C)N1", "note": "(stereo not drawn)", "Potency": "inconclusive: 39.8 µM [inhibitor, partial curve]"},
      {"smiles": "Cc1noc(NS(=O)(=O)c2ccc(NC(=O)c3ccc(Cl)c(S(=O)(=O)N(C)c4ccccc4)c3)cc2)c1C", "activity change, negative = inhibition": "inactive: -25.9%"},
      {"smiles": "CCCC/C=C/C=C\\C=O", "activity change, negative = inhibition": "inactive: -2.28% [at 176 µM]"},
      {"smiles": "O=C(COc1ccc(Br)cc1)NCCCNC(=O)c1ccncc1", "activity change, negative = inhibition": "inactive: 15.5%"},
      {"smiles": "CCN1CCC(N2CCC(Oc3ccccc3-c3nc(-c4ccncc4)no3)C2)CC1", "note": "(stereo not drawn)", "activity change, negative = inhibition": "inactive: 52.4%"},
      {"smiles": "COCCCNC(=O)c1ccc(NC(=O)N2CCCCc3ccccc32)cc1", "activity change, negative = inhibition": "inactive: -7.12%"},
      {"smiles": "O=C(CCSc1ccccc1)NCCc1ccc(F)cc1", "Potency": "inconclusive: 35.5 µM [inhibitor, single point]"},
      {"smiles": "Cc1sc(NC(=O)CN(Cc2ccccc2)C(=O)C(C)C)c(C(N)=O)c1C", "activity change, negative = inhibition": "inactive: 2.31%"},
      {"smiles": "S=C1NC[C@H](Cc2cccc3ccccc23)N1CC1CCCCC1", "Potency": "inconclusive: 44.7 µM [inhibitor, partial curve, poor fit]"},
      {"smiles": "CCSc1ccc(-c2ccco2)nn1", "activity change, negative = inhibition": "inactive: -12.1%"},
      {"smiles": "CC(C)C[C@H]1CNC(=S)N1CC1CCCN1C[C@H](CC(C)C)N1C[C@H](CC(C)C)N(CC2CCCCCC2)C1=S", "note": "(stereo partly drawn)", "Potency": "inconclusive: 15.8 µM [inhibitor, full curve, poor fit]"},
      {"smiles": "COC(=O)[C@@H]1CCCN1Cc1ccc2c(c1)CN(Cc1ccc3c(c1)CCO3)CCO2", "Potency": "inconclusive: 112 µM [inhibitor, single point]"},
      {"smiles": "NNc1ccc(F)cc1F", "Potency": "active: 4.47 µM"},
      {"smiles": "Cn1c(CN2CCOCC2)nnc1C1CCCN(C(=O)CNC(N)=O)C1", "note": "(stereo not drawn)", "activity change, negative = inhibition": "inactive: 25.3%"},
      {"smiles": "Cc1ccc(C(C)C)c(OCCCN(C)Cc2ccccc2)c1", "Potency": "inconclusive: 14.1 µM [inhibitor, partial curve]"},
      {"smiles": "O=C(NC[C@H]1O[C@@H](CO)[C@@H](O)[C@H]1N1CCOCC1)c1ccc(F)c(Cl)c1", "Potency": "inconclusive: 35.5 µM [inhibitor, single point]"},
      {"smiles": "COc1ccccc1N1C(=O)CC(N2CCN(c3ccc([N+](=O)[O-])cc3)CC2)C1=O", "note": "(stereo not drawn)", "Potency": "inconclusive: 50.1 µM [inhibitor, single point]"},
      {"smiles": "COC(=O)CN1C(=O)S/C(=C/c2ccc(N3CCCCC3)o2)C1=O", "Potency": "active: 44.7 µM"},
      {"smiles": "COc1ccc(OC)c(C2C=C(C34CC5CC(CC(C5)C3)C4)NC(=S)N2)c1", "note": "(stereo not drawn)", "Potency": "active: 20 µM and active: 31.6 µM"},
      {"smiles": "OCc1cccc(-c2csc(C(O)(c3ccccc3)C(F)(F)F)n2)c1", "note": "(stereo not drawn)", "Potency": "inconclusive: 50.1 µM [inhibitor, partial curve, poor fit]"}
    ]}
  ]
}
